Experimental data reported in publication PMC5691768, “Comparison of the Micellar Incorporation and the Intestinal Cell Uptake of Cholecalciferol, 25-Hydroxycholecalciferol and 1-α-Hydroxycholecalciferol” (Nutrients, 2017).

test: In vitro biopotency calculated as micellar incorporation × cell uptake; details: mean ± SEM

| Compound | biopotency (micellar incorporation × cell uptake) [%] |
| --- | --- |
| C=C1/C(=C\C=C2/CCC[C@]3(C)[C@@H]([C@H](C)CCCC(C)C)CC[C@@H]23)C[C@@H](O)C[C@@H]1O [1α(OH)D3, 1-α-hydroxycholecalciferol] | 13.19 ± 1.38 |
| C=C1CC[C@H](O)C/C1=C/C=C1\CCC[C@]2(C)[C@@H]([C@H](C)CCCC(C)(C)O)CC[C@@H]12 [25(OH)D3, 25-hydroxycholecalciferol] | 6.67 ± 1.21 |
| C=C1CC[C@H](O)C/C1=C/C=C1\CCC[C@]2(C)[C@@H]([C@H](C)CCCC(C)C)CC[C@@H]12 [D3, cholecalciferol] | 5.49 ± 0.55 |
